pIC50: −log10 of the molar value. The structures given here were assigned with low confidence; some may be wrong.
Target: hGalectin-3 (Homo sapiens, UniProt P17931)
Assay: Gal-3 ELISA assay (hGalectin-3 neutralization binding to asialofetuin)
Conditions: read-out: hGal-3 IC50; Table 2

Amino acid sequences for entries named in this document (tags omitted).
UniProt P17931, whole entry: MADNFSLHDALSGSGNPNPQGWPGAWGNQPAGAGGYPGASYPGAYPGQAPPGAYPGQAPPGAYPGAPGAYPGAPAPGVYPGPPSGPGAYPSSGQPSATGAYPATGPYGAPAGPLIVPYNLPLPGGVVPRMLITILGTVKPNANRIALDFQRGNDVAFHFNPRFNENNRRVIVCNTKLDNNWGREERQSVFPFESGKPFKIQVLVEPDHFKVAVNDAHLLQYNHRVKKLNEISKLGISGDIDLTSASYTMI

CO[C@@H]1[C@@H](n2cc(-c3cccc(F)c3)nn2)[C@@H](O)[C@@H](CO)O[C@H]1C(=O)N1C[C@@H]2C[C@H]1CN2c1ccc2c(c1)OCO2
pIC50: 6.70

Source: patent publication US12286424B2, “Small molecule inhibitors of galectin-3” (BRISTOL-MYERS SQUIBB COMPANY, priority 2020, dated 2025)
